From publication PMC7979543

The chains behind the UniProt entries cited, without tags or fusion partners.
UniProt Q13619: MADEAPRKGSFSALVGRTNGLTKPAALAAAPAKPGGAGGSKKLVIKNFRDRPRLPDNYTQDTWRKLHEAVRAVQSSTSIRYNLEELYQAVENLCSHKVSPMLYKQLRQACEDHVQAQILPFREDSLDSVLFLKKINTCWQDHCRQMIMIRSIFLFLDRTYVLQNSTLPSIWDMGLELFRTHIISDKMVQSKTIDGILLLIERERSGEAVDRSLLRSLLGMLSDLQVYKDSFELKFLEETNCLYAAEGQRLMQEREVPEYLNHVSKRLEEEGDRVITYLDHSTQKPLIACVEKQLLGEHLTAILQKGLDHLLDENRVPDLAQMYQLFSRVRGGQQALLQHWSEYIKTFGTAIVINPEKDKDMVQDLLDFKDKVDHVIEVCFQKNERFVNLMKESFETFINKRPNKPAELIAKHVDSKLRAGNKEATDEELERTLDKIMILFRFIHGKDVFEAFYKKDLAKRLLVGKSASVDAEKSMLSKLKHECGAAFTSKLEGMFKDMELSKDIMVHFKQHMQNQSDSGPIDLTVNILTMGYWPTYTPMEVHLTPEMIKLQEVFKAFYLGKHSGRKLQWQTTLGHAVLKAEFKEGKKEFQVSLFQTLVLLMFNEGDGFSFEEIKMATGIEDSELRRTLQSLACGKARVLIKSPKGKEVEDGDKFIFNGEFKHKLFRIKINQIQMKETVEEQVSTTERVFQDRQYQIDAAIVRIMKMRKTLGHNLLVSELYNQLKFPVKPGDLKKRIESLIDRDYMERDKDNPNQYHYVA
UniProt Q9NZJ0: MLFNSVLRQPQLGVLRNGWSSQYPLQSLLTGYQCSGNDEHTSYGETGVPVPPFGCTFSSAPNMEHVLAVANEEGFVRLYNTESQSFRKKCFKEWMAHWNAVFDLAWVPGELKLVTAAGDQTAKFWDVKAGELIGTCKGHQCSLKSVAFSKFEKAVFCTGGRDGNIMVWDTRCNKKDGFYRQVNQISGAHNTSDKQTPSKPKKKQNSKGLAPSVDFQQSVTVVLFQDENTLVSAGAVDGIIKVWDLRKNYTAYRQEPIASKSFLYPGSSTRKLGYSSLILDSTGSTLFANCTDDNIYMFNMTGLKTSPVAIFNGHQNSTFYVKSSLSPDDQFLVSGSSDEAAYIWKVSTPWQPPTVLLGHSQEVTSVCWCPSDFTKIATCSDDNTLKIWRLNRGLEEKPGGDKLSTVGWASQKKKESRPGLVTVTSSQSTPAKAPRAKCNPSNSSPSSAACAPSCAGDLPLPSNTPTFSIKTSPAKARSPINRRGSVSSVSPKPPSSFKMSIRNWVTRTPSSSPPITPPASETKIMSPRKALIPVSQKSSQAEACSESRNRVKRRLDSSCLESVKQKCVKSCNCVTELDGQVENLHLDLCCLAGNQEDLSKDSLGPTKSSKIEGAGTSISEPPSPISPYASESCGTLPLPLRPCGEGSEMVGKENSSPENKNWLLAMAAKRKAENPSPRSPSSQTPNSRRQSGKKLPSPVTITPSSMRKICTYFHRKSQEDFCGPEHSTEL
UniProt Q86VP6: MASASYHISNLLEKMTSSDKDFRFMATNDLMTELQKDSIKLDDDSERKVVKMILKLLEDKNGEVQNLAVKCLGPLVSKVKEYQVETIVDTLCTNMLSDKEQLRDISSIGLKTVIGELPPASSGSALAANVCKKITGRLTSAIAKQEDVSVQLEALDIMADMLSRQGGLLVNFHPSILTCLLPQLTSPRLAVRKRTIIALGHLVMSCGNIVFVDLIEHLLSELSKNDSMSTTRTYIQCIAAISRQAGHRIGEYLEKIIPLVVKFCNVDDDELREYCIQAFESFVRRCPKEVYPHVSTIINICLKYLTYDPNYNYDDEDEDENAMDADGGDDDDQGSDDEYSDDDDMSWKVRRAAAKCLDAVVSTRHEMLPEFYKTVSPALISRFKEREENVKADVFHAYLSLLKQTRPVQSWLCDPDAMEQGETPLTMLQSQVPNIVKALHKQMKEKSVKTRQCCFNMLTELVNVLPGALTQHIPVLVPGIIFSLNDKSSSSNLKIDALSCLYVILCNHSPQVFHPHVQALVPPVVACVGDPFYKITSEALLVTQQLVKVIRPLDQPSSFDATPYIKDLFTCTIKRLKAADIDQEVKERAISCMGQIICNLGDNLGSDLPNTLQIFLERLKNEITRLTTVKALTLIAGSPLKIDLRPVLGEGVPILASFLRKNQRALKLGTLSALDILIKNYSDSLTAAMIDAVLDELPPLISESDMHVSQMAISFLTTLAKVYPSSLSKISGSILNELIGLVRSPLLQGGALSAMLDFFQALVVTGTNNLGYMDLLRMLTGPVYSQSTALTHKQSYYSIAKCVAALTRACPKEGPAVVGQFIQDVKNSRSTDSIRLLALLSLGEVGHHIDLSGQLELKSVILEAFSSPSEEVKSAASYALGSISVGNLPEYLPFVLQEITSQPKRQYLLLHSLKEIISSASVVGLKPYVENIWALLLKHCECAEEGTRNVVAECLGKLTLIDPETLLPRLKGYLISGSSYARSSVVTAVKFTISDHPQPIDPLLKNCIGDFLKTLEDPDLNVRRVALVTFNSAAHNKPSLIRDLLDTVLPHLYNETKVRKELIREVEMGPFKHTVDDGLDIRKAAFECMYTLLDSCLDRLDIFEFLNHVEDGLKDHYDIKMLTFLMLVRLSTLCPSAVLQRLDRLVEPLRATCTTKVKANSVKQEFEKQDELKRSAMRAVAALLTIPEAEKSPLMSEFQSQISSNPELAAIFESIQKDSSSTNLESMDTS

Key:
HA-CUL4A = HA-CUL4A (UniProt Q13619); experiment: affinity purification with mass spectrometry; HEK293T transfected with HA-CUL4A, X-rays (5 Gy) 48 h later, after 24 h enrichment with anti-HA antibody, SDS-PAGE, mass spectrometry (more than two peptides with IonScore > 20)
Flag-DTL = Flag-DTL (UniProt Q9NZJ0); experiment: affinity purification with mass spectrometry; HEK293T transfected with Flag-DTL, X-rays (5 Gy) 48 h later, after 24 h enrichment with anti-Flag antibody, SDS-PAGE, mass spectrometry (more than two peptides with IonScore > 20)

binding (HA-CUL4A)	binding (Flag-DTL)	Substance
binds		CAND1 (from UniProt Q86VP6 1-1230)
	binds	DNA-PKcs (from UniProt P78527 1-4128)
binds		DTL (endogenous) (from UniProt Q9NZJ0 1-730)
	binds	CUL4A (endogenous) (from UniProt Q13619 1-759)

These are yes or no findings as the source states them, for the method shown. In cells and extracts the contact can be indirect. Here binding means that the protein was enriched with, or labelled near, the bait; the list need not be complete.
